Data reported in patent publication US20100130450A1, “Methods of Treating Fungal Infections” (NORTHEASTERN UNIVERSITY, priority 2007, published 2010).
In brackets after ≈: the same amount, converted by molar mass.

Test system: C. albicans
Experiment: MIC
Format: cell-based, Candida albicans

## C[C@@H]1[C@H](O)[C@@H](C)/C=C/C=C/C=C/C=C/C=C/C=C/C=C/[C@H](O[C@@H]2O[C@H](C)[C@@H](O)[C@H](N)[C@@H]2O)C[C@@H]2O[C@](O)(C[C@@H](O)C[C@@H](O)[C@H](O)CC[C@@H](O)C[C@@H](O)CC(=O)O[C@H]1C)C[C@H](O)[C@H]2C(=O)O [amphotericin B]
  MIC: 1 µg/mL (≈ 1.08 µM)
